This is one part of the list. These are further read-outs of the screen, such as a control signal, another cell line or another target. No call is given for them. The list favours compounds with an active or inconclusive main result. The note in brackets gives the kind of curve behind each potency; many fits are weak.
Assay: qHTS Assay for Lipid Storage Modulators in Drosophila S3 Cells;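 as to cell number change: cells counted by Cell Tracker Red CMTPX staining in the red channel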
Settings: BODIPY lipid droplet fluorescence, 18-24 h; for cell number change: measured here: cell count max response, cells fed with added oleic acid
In short: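 Laser-scanning cytometry quantifies lipid droplet accumulation (500–530 nm total intensity; droplet/cell object ratio) in oleic acid-fed (400 uM added) Drosophila S3 cells treated with a concentration series. 20 uM Triacsin C defined 100% inhibition.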

[1] = measured here: cell number channel AC50, cells fed with added oleic acid
[2] = measured here: lipid fluorescence (Fed channel) AC50, cells fed with added oleic acid

Molecule `CC(C)(CNC(=O)c1cc(Cl)c(O)c(Cl)c1)N1CCCCC1` has a cell number change of 10.5%.
For `CCCCN(C(=O)c1cccc(S(=O)(=O)N2CCN(C)CC2)c1)c1c(N)n(CCC)c(=O)[nH]c1=O`, the cell number change was -4.5%.
In the case of `N#C/C(=N\Nc1ccc(S(=O)(=O)N2CCc3ccccc32)cc1)C(N)=S`, the cell number change is reported as 6.67% and the AC50 [1] is reported as 0.0206 µM [falling, partial curve, poor fit].
With `Cc1ccccc1OCC(=O)NNC(=O)c1ccc(-c2ccccc2)cc1` the AC50 [2] was 0.58 µM [rising, single point].
With `Cc1ccsc1C(=O)Nc1ccc(OCc2ccccc2)cc1` the cell number change was 16.9% and the AC50 [2] was 4.61 µM [rising, full curve, poor fit].
With `Cc1ccc2c(c1)N(CC(=O)O)C(=O)CO2` the cell number change was -31.9%, the AC50 [1] was 0.00651 µM [falling, full curve] and the AC50 [2] was 0.00461 µM [falling, full curve, poor fit].
In the case of `O=C(NCCSc1ccccc1)c1cncc(Br)c1`, the cell number change is reported as 5.31% and the AC50 [2] is reported as 0.00517 µM [falling, full curve, poor fit].
With `COc1ccc(C)cc1NC(=O)c1ccccc1N(C)S(=O)(=O)c1ccccc1` the cell number change was -20.7% and the AC50 [2] was 3.26 µM [rising, single point].
With `O=C(CCC(=O)Nc1ccc(Oc2ccccc2)cc1)NCCO` the cell number change was 59.1%, the AC50 [1] was 14.6 µM [rising, partial curve] and the AC50 [2] was 0.00461 µM [falling, full curve, poor fit].
With `O=C(CSc1nnc(-c2ccc(Br)cc2)n1CCc1ccccc1)NC1CCS(=O)(=O)C1` (configuration not stated) the cell number change was 9.99% and the AC50 [2] was 1.64 µM [rising, full curve, poor fit].
For `COc1ccc(-c2sc3ccc(N4CCOCC4)cc3c2-c2ccc(O)cc2)cc1`, the cell number change was -3.69%.
In the case of `CCC(=O)Nc1c2c(nc3c1CCC3)CCCC2`, the cell number change is reported as 22% and the AC50 [2] is reported as 29.1 µM [rising, single point].
With `CCn1c(SCC(=O)Nc2nc(-c3ccccc3)cs2)nnc1-c1ccccc1` the cell number change was 22% and the AC50 [1] was 6.51 µM [rising, single point].
In the case of `Cc1ccccc1-n1c(SCC(=O)NCc2cccs2)nnc1-c1ccncc1`, the cell number change is reported as -4.49% and the AC50 [1] is reported as 0.58 µM [rising, full curve, poor fit].
With `CN(C)C1=NC[C@H](Cc2ccccc2)N1CCC1CCCC1` the cell number change was 17.7% and the AC50 [2] was 23.1 µM [rising, single point].
For `Cc1ccc(Nc2nc(N)nc(CCl)n2)cc1`, the cell number change was -1.68% and the AC50 [2] was 0.146 µM [falling, full curve, poor fit].
With `Cc1c(NC(=S)NC(NC(=O)C(C)(C)C)C(Cl)(Cl)Cl)c(=O)n(-c2ccccc2)n1C` (configuration not stated) the cell number change was 32.2%, the AC50 [1] was 25.9 µM [rising, single point] and the AC50 [2] was 0.103 µM [rising, full curve, poor fit].
For `Cc1c(Cl)cccc1N=Cc1ccc([N+](=O)[O-])s1`, the AC50 [2] was 29.1 µM [falling, single point].
For `CN1CCN(C(=O)c2ccc(-n3cccn3)nc2)CC1`, the cell number change was 48.9%, the AC50 [1] was 0.116 µM [rising, full curve, poor fit] and the AC50 [2] was 29.1 µM [rising, partial curve, poor fit].
For `CC1CCCCN1Cc1nc2c(c(=O)n(C)c(=O)n2C)n1CCc1ccccc1` (configuration not stated), the AC50 [1] was 3.66 µM [rising, single point].
For `CCCCc1ccc(NC(=O)CN(C)CC(=O)Nc2ccccc2Cl)cc1`, the cell number change was 45.8% and the AC50 [1] was 29.1 µM [rising, single point].
In the case of `CCCOP(=O)(OCCC)C(Nc1cccc(C(F)(F)F)c1)c1ccc(C)cc1` (configuration not stated), the cell number change is reported as -19.8% and the AC50 [2] is reported as 29.1 µM [falling, single point].
With `CCOC(=O)CCSCC(=O)N1N=C(c2cccs2)CC1c1ccc(C)cc1` (configuration not stated) the cell number change was -19% and the AC50 [2] was 29.1 µM [falling, single point].
With `Cn1ncc(Cl)c1C(=O)NC1C2CC3CC(C2)CC1C3` (configuration not stated) the cell number change was -6.37% and the AC50 [2] was 29.1 µM [falling, single point].
In the case of `COc1cc2[nH]c(C(=O)N(C)Cc3ccccc3)cc2c(OC)c1OC`, the cell number change is reported as 91% and the AC50 [1] is reported as 29.1 µM [rising, single point].
With `Cc1onc(-c2ccccc2)c1C(=O)NCCc1ccc(S(N)(=O)=O)cc1` the cell number change was 22.2% and the AC50 [2] was 18.4 µM [rising, single point].
With `COc1ccccc1OC(C)C(=O)Nc1ccccc1C(=O)NCC1CCCO1` (configuration not stated) the cell number change was -12.8% and the AC50 [2] was 0.82 µM [falling, single point].
For `CN(C)Cc1ccccc1Sc1ccccc1Br`, the cell number change was 81.6% and the AC50 [1] was 3.26 µM [falling, partial curve, poor fit].
For `FC(F)Oc1ccccc1/C=N/n1cnc2ccccc21`, the cell number change was 10.6%.
With `COc1cc(NC(=O)c2ccc(-c3ccc(Br)cc3)o2)ccc1NC(=O)C(C)C` the cell number change was 0.132% and the AC50 [2] was 0.058 µM [rising, full curve].

Source: PubChem BioAssay AID2685 (National Center for Advancing Translational Sciences (NCATS), 2010)
